Test results: patent US11446265B2, “Reagents, compositions and methods for improving viability and function of cells, tissues and organs” (TARGA BIOMEDICAL, priority 2016, dated 2022)
For at least one compound, name, drawing or mass did not settle the structure.

Test system: rat mesenchymal stem cells (rMSC)
Experiment: rMSC viability after oxidative stress (H2O2, LIVE/DEAD)
Assay type: cell-based
Conditions: 1-hour treatment, compound alone
Procedure: To test the first main condition, MSCs (either sourced from rat or humans) were treated with the candidate pharmaco-optimizers, washed and submitted to hypoxia/serum starvation (<1% O2 in hypoxia chamber in low serum media for 48-72 hours) or oxidative stress (incubation in media for 1 hour spiked with 0-2 mM H2O2), which mimic the major lethal stressors present in the ischemic transplant microenvironment. Viability status of cells are assessed using the LIVE/DEAD viability/cytotoxicity kit (Life Technologies™) and results are quantified by Operetta high content screening (HCS) apparatus equipped with Harmony automated analysis software (Perkin Elmer™).

For `COC1=C2C[C@@H](C)C[C@H](OC)[C@H](O)[C@@H](C)/C=C(\C)[C@H](OC(N)=O)[C@@H](OC)/C=C\C=C(/C)C(=O)NC(=CC1=O)C2=O` [Geldanamycin], the “protection of rMSCs from oxidative stress induced death” value was “not”.
